Some of the results follow. Hit calls seldom repeat between salt and free forms of one compound.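 In K562 cells expressing nanoluciferase-fused kinases, luminescence was recorded at 4 h intervals between 2 and 18 h, normalized as percent of control with DMSO at 100% and a positive control at 0%. A significant (2 sigma) signal drop marks a time point as decreased. The authors' rule for a hit is not shown and takes in more than the number of time points.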
Tests used:
Experiment in all cases: kinase-Nluc reporter destabilization hit call (1 = scored as downregulated) (binary); higher = compound decreases kinase abundance
Details in all cases: K562; 2-18 h
CDK7 = CDK7 (UniProt P50613)
CDK9 = CDK9 (UniProt P50750)
CHEK2 = CHEK2 (UniProt O96017)
CSF1R = CSF1R (UniProt P07333)
CSK = CSK (UniProt P41240)
CSNK1A1 = CSNK1A1 (UniProt P48729)
CSNK1D = CSNK1D (UniProt P48730)
DDR1 = DDR1 (UniProt Q08345)
DYRK1B = DYRK1B (UniProt Q9Y463)
DYRK2 = DYRK2 (UniProt Q92630)
EGFR = EGFR (UniProt P00533)
EGFR_G719S = EGFR_G719S (UniProt P00533)
EGFR_G719S_T790M = EGFR_G719S_T790M (UniProt P00533)
EGFR_L718V = EGFR_L718V (UniProt P00533)
EGFR_L858R = EGFR_L858R (UniProt P00533)
EGFR_L861Q = EGFR_L861Q (UniProt P00533)
EGFR_T790M = EGFR_T790M (UniProt P00533)
EPHA2 = EPHA2 (UniProt P29317)
ERBB3 = ERBB3 (UniProt P21860)
[1] = biological target: ERBB4_R711C (clone: ERBB4_mut) (UniProt Q15303)

Amino acid sequences for entries named in this document (tags omitted). A change or cut given only in a name is not applied to a line headed by its entry.
UniProt P50750, whole entry: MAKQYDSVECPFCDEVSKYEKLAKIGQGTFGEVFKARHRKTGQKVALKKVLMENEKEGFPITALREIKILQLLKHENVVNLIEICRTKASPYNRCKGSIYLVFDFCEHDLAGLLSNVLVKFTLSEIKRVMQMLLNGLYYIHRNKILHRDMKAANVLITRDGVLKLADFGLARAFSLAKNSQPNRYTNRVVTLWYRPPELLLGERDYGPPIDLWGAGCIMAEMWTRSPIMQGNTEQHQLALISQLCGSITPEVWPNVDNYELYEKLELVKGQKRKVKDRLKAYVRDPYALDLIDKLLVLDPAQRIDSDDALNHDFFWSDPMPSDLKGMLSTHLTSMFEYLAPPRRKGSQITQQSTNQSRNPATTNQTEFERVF
UniProt O96017, whole entry: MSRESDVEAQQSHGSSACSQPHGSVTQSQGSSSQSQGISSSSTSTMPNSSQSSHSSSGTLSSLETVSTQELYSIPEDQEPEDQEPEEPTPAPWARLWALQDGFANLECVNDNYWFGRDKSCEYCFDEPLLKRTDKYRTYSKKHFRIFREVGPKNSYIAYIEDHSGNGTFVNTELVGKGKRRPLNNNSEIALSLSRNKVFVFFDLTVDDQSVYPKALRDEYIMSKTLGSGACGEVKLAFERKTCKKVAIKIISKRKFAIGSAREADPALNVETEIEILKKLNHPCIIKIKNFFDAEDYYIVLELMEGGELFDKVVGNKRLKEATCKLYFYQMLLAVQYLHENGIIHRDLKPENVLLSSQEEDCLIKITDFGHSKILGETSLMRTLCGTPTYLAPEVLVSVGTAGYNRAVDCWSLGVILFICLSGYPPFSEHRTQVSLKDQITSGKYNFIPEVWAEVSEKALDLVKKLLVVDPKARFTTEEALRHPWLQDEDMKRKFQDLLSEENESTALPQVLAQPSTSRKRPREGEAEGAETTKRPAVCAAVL
UniProt P41240: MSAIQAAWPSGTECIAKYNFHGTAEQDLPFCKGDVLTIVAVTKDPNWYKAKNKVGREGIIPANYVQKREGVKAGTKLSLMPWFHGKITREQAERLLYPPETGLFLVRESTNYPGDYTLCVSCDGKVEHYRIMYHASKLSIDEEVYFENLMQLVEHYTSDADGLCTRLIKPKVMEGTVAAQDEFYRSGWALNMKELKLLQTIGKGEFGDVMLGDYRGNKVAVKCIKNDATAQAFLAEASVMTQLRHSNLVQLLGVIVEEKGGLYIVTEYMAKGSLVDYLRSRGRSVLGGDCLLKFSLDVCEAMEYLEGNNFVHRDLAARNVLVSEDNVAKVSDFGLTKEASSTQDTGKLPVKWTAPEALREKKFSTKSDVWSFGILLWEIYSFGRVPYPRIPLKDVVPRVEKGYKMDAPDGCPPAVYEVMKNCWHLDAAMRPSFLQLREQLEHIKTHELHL
UniProt P48729: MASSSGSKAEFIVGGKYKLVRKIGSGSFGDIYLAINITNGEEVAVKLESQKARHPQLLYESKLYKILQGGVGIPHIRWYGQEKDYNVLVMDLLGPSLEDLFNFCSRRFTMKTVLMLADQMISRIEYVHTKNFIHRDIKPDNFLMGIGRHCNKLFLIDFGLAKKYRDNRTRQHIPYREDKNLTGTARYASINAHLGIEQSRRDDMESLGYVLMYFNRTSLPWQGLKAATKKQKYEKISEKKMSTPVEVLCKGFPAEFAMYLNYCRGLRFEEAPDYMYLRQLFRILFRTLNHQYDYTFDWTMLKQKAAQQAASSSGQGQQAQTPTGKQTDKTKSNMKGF
UniProt P48730: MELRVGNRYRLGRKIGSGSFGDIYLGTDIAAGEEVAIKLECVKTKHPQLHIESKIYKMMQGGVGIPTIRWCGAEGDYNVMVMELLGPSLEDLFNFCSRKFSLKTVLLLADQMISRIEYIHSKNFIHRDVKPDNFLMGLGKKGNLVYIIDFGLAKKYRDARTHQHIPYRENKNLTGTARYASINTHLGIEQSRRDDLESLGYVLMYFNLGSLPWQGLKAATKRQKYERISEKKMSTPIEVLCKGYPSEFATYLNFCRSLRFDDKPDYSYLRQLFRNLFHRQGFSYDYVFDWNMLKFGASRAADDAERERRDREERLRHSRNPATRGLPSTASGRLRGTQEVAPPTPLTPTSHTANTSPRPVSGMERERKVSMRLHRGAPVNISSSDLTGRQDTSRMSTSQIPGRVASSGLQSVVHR
UniProt Q08345: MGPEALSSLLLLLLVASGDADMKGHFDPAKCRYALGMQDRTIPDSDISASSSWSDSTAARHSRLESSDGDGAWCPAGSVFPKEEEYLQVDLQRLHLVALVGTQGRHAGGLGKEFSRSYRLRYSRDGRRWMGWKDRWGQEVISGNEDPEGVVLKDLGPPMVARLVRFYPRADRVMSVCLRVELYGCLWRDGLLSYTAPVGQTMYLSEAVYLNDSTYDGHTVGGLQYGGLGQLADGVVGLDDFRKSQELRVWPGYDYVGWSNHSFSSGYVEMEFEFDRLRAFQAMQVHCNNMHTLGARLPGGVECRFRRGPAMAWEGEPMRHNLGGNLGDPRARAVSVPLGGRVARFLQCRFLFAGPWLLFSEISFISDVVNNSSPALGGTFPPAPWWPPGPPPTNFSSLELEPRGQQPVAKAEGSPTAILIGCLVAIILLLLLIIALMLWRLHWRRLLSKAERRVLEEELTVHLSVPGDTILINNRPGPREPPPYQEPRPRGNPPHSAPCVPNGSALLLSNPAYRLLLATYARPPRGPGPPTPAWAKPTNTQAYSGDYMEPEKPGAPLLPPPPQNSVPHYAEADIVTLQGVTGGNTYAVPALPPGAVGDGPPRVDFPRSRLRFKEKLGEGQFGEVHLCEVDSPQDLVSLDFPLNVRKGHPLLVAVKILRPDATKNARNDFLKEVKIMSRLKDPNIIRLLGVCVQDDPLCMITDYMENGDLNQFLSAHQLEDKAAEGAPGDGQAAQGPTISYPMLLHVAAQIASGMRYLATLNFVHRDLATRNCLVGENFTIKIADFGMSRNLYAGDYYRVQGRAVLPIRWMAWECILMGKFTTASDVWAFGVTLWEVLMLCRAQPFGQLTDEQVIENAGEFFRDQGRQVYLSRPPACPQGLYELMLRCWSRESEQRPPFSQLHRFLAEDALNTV
UniProt Q9Y463, whole entry, looked up: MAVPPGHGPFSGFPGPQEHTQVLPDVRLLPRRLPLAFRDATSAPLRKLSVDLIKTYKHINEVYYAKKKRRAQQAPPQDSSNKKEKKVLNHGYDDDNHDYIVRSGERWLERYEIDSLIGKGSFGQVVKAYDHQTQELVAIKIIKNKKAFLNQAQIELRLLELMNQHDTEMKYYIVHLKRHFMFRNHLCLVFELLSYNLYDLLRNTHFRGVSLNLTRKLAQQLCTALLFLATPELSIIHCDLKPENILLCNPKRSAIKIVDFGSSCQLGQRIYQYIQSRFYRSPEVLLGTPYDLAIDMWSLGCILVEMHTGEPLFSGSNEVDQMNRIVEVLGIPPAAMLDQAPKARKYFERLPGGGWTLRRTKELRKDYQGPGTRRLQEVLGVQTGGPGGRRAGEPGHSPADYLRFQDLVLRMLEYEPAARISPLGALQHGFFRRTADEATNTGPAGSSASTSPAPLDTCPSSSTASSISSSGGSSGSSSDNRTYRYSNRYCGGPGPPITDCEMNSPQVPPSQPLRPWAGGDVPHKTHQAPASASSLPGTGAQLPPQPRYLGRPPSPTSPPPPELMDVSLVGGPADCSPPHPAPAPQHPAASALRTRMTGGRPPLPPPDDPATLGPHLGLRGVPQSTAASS
UniProt Q92630: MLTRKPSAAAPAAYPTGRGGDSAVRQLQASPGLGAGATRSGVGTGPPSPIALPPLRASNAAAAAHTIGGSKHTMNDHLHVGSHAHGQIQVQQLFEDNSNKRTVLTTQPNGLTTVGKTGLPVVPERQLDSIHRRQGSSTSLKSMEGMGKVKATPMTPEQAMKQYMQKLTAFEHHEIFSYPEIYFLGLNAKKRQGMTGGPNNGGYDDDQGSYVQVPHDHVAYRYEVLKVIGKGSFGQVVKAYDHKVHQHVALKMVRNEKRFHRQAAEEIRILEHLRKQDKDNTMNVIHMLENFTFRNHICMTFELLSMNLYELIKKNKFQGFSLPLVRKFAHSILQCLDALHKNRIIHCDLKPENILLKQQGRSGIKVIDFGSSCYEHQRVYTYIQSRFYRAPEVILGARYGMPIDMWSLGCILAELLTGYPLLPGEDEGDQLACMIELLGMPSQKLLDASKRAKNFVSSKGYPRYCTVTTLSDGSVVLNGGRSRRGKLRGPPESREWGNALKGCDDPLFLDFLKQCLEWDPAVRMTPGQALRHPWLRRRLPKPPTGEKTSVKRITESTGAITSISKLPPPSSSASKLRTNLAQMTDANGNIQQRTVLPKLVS
UniProt P29317, whole entry: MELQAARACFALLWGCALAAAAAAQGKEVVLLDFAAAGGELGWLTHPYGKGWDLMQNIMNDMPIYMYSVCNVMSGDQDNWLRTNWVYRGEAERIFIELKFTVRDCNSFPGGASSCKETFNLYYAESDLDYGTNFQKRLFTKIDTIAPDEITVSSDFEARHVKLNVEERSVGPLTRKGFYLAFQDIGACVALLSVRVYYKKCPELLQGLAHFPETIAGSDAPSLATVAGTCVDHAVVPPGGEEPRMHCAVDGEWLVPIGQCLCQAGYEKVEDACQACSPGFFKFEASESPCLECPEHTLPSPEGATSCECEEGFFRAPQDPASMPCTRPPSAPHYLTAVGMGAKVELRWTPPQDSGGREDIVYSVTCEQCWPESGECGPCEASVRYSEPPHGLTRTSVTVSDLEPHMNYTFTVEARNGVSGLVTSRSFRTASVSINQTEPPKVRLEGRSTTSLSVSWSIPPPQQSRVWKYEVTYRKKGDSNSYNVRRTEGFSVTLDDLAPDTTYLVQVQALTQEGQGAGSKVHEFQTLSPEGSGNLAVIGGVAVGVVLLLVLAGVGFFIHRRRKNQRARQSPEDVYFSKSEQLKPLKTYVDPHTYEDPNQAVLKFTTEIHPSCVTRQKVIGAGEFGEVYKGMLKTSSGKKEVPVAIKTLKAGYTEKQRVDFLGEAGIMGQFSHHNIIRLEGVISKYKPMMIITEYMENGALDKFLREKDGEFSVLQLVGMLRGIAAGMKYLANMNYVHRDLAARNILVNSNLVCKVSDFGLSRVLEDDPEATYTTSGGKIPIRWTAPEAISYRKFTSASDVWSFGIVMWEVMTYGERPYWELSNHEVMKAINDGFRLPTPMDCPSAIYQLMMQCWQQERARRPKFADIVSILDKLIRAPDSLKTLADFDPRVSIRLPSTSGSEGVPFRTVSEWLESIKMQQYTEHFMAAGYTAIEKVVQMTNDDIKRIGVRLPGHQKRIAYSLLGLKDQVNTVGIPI
UniProt P21860, whole entry: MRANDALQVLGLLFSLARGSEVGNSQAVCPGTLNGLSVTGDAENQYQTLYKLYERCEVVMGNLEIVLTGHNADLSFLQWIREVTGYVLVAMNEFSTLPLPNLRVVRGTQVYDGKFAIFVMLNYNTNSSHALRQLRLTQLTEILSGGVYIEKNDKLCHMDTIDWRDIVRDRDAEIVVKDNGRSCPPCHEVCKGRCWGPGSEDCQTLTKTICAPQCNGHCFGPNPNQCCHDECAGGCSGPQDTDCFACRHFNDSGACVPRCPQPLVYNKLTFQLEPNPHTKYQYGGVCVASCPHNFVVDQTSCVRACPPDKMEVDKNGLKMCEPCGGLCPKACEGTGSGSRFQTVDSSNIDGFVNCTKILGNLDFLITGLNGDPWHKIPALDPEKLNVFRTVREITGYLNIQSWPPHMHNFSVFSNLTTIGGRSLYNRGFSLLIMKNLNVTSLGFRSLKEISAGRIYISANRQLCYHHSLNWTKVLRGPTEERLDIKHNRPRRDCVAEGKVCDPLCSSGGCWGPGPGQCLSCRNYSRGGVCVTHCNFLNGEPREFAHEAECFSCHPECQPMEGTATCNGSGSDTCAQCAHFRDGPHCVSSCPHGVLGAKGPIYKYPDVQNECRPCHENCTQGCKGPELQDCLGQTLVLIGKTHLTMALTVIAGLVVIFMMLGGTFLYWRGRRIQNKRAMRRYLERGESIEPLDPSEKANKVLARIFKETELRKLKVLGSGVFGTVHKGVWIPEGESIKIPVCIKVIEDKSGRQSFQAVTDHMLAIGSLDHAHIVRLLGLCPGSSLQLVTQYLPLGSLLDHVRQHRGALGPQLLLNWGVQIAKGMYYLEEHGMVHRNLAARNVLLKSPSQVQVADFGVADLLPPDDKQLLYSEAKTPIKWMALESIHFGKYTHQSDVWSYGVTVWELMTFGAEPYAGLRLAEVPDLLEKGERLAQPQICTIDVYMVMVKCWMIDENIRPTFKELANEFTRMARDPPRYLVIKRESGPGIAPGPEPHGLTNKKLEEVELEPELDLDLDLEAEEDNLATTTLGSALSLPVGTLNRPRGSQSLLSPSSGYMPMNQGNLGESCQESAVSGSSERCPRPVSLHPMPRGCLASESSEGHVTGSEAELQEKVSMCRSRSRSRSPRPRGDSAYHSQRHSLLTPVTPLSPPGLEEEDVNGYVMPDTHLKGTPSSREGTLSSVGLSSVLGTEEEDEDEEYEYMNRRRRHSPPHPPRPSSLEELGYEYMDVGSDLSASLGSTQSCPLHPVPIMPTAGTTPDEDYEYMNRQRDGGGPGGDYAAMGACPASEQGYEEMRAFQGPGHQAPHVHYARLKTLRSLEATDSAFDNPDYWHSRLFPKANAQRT

Measured: kinase-Nluc reporter destabilization hit call

COc1ccc(Cn2cc(C(=O)N=Nc3c(O)[nH]c4c(C)cccc34)nn2)cc1 [MARK4 inhibitor 1] (10 µM)
inactive: CDK7 = 0 | CDK9 = 0 | CHEK2 = 0 | CSF1R 0 | CSK 0 | CSNK1A1 = 0 | CSNK1D 0 | DDR1 = 0 | DYRK1B 0 | DYRK2 = 0 | EGFR 0 | EGFR_G719S 0 | EGFR_G719S_T790M 0 | EGFR_L718V 0 | EGFR_L858R 0 | EGFR_L861Q 0 | EGFR_T790M 0 | EPHA2 = 0 | ERBB3 = 0 | [1] 0

C[C@@H]1O[C@@H](O[C@H]2[C@H](Oc3cc(O)c4c(=O)cc(-c5ccc(O)cc5)oc4c3)O[C@H](CO)[C@@H](O)[C@@H]2O)[C@H](O)[C@H](O)[C@H]1O [Rhoifolin] (10 µM)
inactive: CDK7 = 0 | CDK9 = 0 | CHEK2 = 0 | CSF1R 0 | CSK 0 | CSNK1A1 = 0 | CSNK1D 0 | DDR1 = 0 | DYRK1B 0 | DYRK2 = 0 | EGFR 0 | EGFR_G719S 0 | EGFR_G719S_T790M 0 | EGFR_L718V 0 | EGFR_L858R 0 | EGFR_L861Q 0 | EGFR_T790M 0 | EPHA2 = 0 | ERBB3 = 0 | [1] 0

Cn1c(=O)c(F)c(Nc2ccc(I)cc2F)c2c(=O)n(C[C@@H](O)CO)cnc21 (10 µM)
inactive: CDK7 = 0 | CDK9 = 0 | CHEK2 = 0 | CSF1R 0 | CSK 0 | CSNK1A1 = 0 | CSNK1D 0 | DDR1 = 0 | DYRK1B 0 | DYRK2 = 0 | EGFR 0 | EGFR_G719S 0 | EGFR_G719S_T790M 0 | EGFR_L718V 0 | EGFR_L858R 0 | EGFR_L861Q 0 | EGFR_T790M 0 | EPHA2 = 0 | ERBB3 = 0 | [1] 0

O=C1NC(=O)/C(=C/c2ccc3c(c2)OC(F)(F)O3)S1 (10 µM)
inactive: CDK7 = 0 | CDK9 = 0 | CHEK2 = 0 | CSF1R 0 | CSK 0 | CSNK1A1 = 0 | CSNK1D 0 | DDR1 = 0 | DYRK1B 0 | DYRK2 = 0 | EGFR 0 | EGFR_G719S 0 | EGFR_G719S_T790M 0 | EGFR_L718V 0 | EGFR_L858R 0 | EGFR_L861Q 0 | EGFR_T790M 0 | EPHA2 = 0 | ERBB3 = 0 | [1] 0

Nc1ncnc2c1ncn2[C@@H]1O[C@H](CO)C[C@H]1O [Cordycepin] (10 µM)
inactive: CDK7 = 0 | CDK9 = 0 | CHEK2 = 0 | CSF1R 0 | CSK 0 | CSNK1A1 = 0 | CSNK1D 0 | DDR1 = 0 | DYRK1B 0 | DYRK2 = 0 | EGFR 0 | EGFR_G719S 0 | EGFR_G719S_T790M 0 | EGFR_L718V 0 | EGFR_L858R 0 | EGFR_L861Q 0 | EGFR_T790M 0 | EPHA2 = 0 | ERBB3 = 0 | [1] 0

COc1ncc(-c2nc(N3CCOCC3)nc3c(CN4CCC(C(C)(C)O)CC4)cc(F)cc23)cc1NS(C)(=O)=O [Linperlisib] (10 µM)
inactive: CDK7 = 0 | CDK9 = 0 | CHEK2 = 0 | CSF1R 0 | CSK 0 | CSNK1A1 = 0 | CSNK1D 0 | DDR1 = 0 | DYRK1B 0 | DYRK2 = 0 | EGFR 0 | EGFR_G719S 0 | EGFR_G719S_T790M 0 | EGFR_L718V 0 | EGFR_L858R 0 | EGFR_L861Q 0 | EGFR_T790M 0 | EPHA2 = 0 | ERBB3 = 0 | [1] 0

Cc1cc(NC(=O)c2cccc(NC(=O)/C=C/CN(C)C)c2)ccc1Nc1nccc(-c2cccnc2)n1 (10 µM)
inactive: CDK7 = 0 | CDK9 = 0 | CHEK2 = 0 | CSF1R 0 | CSK 0 | CSNK1A1 = 0 | CSNK1D 0 | DDR1 = 0 | DYRK1B 0 | DYRK2 = 0 | EGFR 0 | EGFR_G719S 0 | EGFR_G719S_T790M 0 | EGFR_L718V 0 | EGFR_L858R 0 | EGFR_L861Q 0 | EGFR_T790M 0 | EPHA2 = 0 | ERBB3 = 0 | [1] 0

CN(CCNc1ccc2ncc(-c3ccc(C(N)=O)cc3)n2n1)C(=O)OC(C)(C)C (10 µM)
inactive: CDK7 = 0 | CDK9 = 0 | CHEK2 = 0 | CSF1R 0 | CSK 0 | CSNK1A1 = 0 | CSNK1D 0 | DDR1 = 0 | DYRK1B 0 | DYRK2 = 0 | EGFR 0 | EGFR_G719S 0 | EGFR_G719S_T790M 0 | EGFR_L718V 0 | EGFR_L858R 0 | EGFR_L861Q 0 | EGFR_T790M 0 | EPHA2 = 0 | ERBB3 = 0 | [1] 0

c1cn2cc(-c3ccc4cn[nH]c4c3)nc(Nc3ccc(N4CCOCC4)cc3)c2n1 [Entospletinib] (10 µM)
inactive: CDK7 = 0 | CDK9 = 0 | CHEK2 = 0 | CSF1R 0 | CSK 0 | CSNK1A1 = 0 | CSNK1D 0 | DDR1 = 0 | DYRK1B 0 | DYRK2 = 0 | EGFR 0 | EGFR_G719S 0 | EGFR_G719S_T790M 0 | EGFR_L718V 0 | EGFR_L858R 0 | EGFR_L861Q 0 | EGFR_T790M 0 | EPHA2 = 0 | ERBB3 = 0 | [1] 0

CNC(=O)c1ccc(-c2cnc3cnc(C(=O)N(C)c4ccc(Cl)cc4)cn23)cc1 (2.5 µM)
inactive: CDK7 = 0 | CDK9 = 0 | CHEK2 = 0 | CSF1R 0 | CSK 0 | CSNK1A1 = 0 | CSNK1D 0 | DDR1 = 0 | DYRK1B 0 | DYRK2 = 0 | EGFR 0 | EGFR_G719S 0 | EGFR_G719S_T790M 0 | EGFR_L718V 0 | EGFR_L858R 0 | EGFR_L861Q 0 | EGFR_T790M 0 | EPHA2 = 0 | ERBB3 = 0 | [1] 0

O=[N+]([O-])c1cc(C(F)(F)F)cc([N+](=O)[O-])c1NNC(=S)Nc1ccc(F)cc1 (10 µM)
inactive: CDK7 = 0 | CDK9 = 0 | CHEK2 = 0 | CSF1R 0 | CSK 0 | CSNK1A1 = 0 | CSNK1D 0 | DDR1 = 0 | DYRK1B 0 | DYRK2 = 0 | EGFR 0 | EGFR_G719S 0 | EGFR_G719S_T790M 0 | EGFR_L718V 0 | EGFR_L858R 0 | EGFR_L861Q 0 | EGFR_T790M 0 | EPHA2 = 0 | ERBB3 = 0 | [1] 0

Quoted from the results shown, 2 compounds:
c1cn2cc(-c3ccc4cn[nH]c4c3)nc(Nc3ccc(N4CCOCC4)cc3)c2n1 [Entospletinib] (10 µM)
inactive: CDK7 = 0 | CDK9 = 0 | CHEK2 = 0 | CSF1R 0 | CSK 0 | CSNK1A1 = 0 | CSNK1D 0 | DDR1 = 0 | DYRK1B 0 | DYRK2 = 0 | EGFR 0 | EGFR_G719S 0 | EGFR_G719S_T790M 0 | EGFR_L718V 0 | EGFR_L858R 0 | EGFR_L861Q 0 | EGFR_T790M 0 | EPHA2 = 0 | ERBB3 = 0 | [1] 0

CNC(=O)c1ccc(-c2cnc3cnc(C(=O)N(C)c4ccc(Cl)cc4)cn23)cc1 (2.5 µM)
inactive: CDK7 = 0 | CDK9 = 0 | CHEK2 = 0 | CSF1R 0 | CSK 0 | CSNK1A1 = 0 | CSNK1D 0 | DDR1 = 0 | DYRK1B 0 | DYRK2 = 0 | EGFR 0 | EGFR_G719S 0 | EGFR_G719S_T790M 0 | EGFR_L718V 0 | EGFR_L858R 0 | EGFR_L861Q 0 | EGFR_T790M 0 | EPHA2 = 0 | ERBB3 = 0 | [1] 0

(more compounds)

CC1CN(C(=O)Nc2ccc(Cl)c(Cl)c2)C(=Nc2ccc(F)cc2)S1 (stereo not given) (10 µM)
inactive: CDK7 = 0 | CDK9 = 0 | CHEK2 = 0 | CSF1R 0 | CSK 0 | CSNK1A1 = 0 | CSNK1D 0 | DDR1 = 0 | DYRK1B 0 | DYRK2 = 0 | EGFR 0 | EGFR_G719S 0 | EGFR_G719S_T790M 0 | EGFR_L718V 0 | EGFR_L858R 0 | EGFR_L861Q 0 | EGFR_T790M 0 | EPHA2 = 0 | ERBB3 = 0 | [1] 0

CC/C=C\C/C=C\C/C=C\CCCCCCCC(=O)O [α-Linolenic acid] (10 µM)
inactive: CDK7 = 0 | CDK9 = 0 | CHEK2 = 0 | CSF1R 0 | CSK 0 | CSNK1A1 = 0 | CSNK1D 0 | DDR1 = 0 | DYRK1B 0 | DYRK2 = 0 | EGFR 0 | EGFR_G719S 0 | EGFR_G719S_T790M 0 | EGFR_L718V 0 | EGFR_L858R 0 | EGFR_L861Q 0 | EGFR_T790M 0 | EPHA2 = 0 | ERBB3 = 0 | [1] 0

CC(=O)c1c(C)c2cnc(Nc3ccc(N4CCN(CCCCNC(=O)COc5cccc6c5C(=O)N(C5CCC(=O)NC5=O)C6=O)CC4)cn3)nc2n(C2CCCC2)c1=O (stereo not given) (10 µM)
inactive: CDK7 = 0 | CDK9 = 0 | CHEK2 = 0 | CSF1R 0 | CSK 0 | CSNK1A1 = 0 | CSNK1D 0 | DDR1 = 0 | DYRK1B 0 | DYRK2 = 0 | EGFR 0 | EGFR_G719S 0 | EGFR_G719S_T790M 0 | EGFR_L718V 0 | EGFR_L858R 0 | EGFR_L861Q 0 | EGFR_T790M 0 | EPHA2 = 0 | ERBB3 = 0 | [1] 0

Cn1cc(Nc2nccc(N3C[C@H]4CC[C@@H](C3)N4C(=O)[C@@H]3CC3(F)F)n2)cn1 (10 µM)
inactive: CDK7 = 0 | CDK9 = 0 | CHEK2 = 0 | CSF1R 0 | CSK 0 | CSNK1A1 = 0 | CSNK1D 0 | DDR1 = 0 | DYRK1B 0 | DYRK2 = 0 | EGFR 0 | EGFR_G719S 0 | EGFR_G719S_T790M 0 | EGFR_L718V 0 | EGFR_L858R 0 | EGFR_L861Q 0 | EGFR_T790M 0 | EPHA2 = 0 | ERBB3 = 0 | [1] 0

C=C1C(=O)O[C@@H]2C[C@@]3(C)CCC[C@H](C)C3=C[C@H]12 [Alantolactone] (10 µM)
inactive: CDK7 = 0 | CDK9 = 0 | CHEK2 = 0 | CSF1R 0 | CSK 0 | CSNK1A1 = 0 | CSNK1D 0 | DYRK1B 0 | DYRK2 = 0 | EGFR 0 | EGFR_G719S 0 | EGFR_G719S_T790M 0 | EGFR_L718V 0 | EGFR_L858R 0 | EGFR_L861Q 0 | EGFR_T790M 0 | EPHA2 = 0 | ERBB3 = 0 | [1] 0
active: DDR1 = 1

Cn1nccc1Nc1nccc(-c2cc3c(s2)C(C)(C)N(CCN2CCOCC2)C3=O)n1 (10 µM)
inactive: CDK7 = 0 | CDK9 = 0 | CHEK2 = 0 | CSF1R 0 | CSK 0 | CSNK1A1 = 0 | CSNK1D 0 | DDR1 = 0 | DYRK1B 0 | DYRK2 = 0 | EGFR 0 | EGFR_G719S 0 | EGFR_G719S_T790M 0 | EGFR_L718V 0 | EGFR_L858R 0 | EGFR_L861Q 0 | EGFR_T790M 0 | EPHA2 = 0 | ERBB3 = 0 | [1] 0

Fc1ccc(-c2nc(-c3c(F)cccc3F)[nH]c2-c2ccncc2)cc1 (10 µM)
inactive: CDK7 = 0 | CDK9 = 0 | CHEK2 = 0 | CSF1R 0 | CSK 0 | CSNK1A1 = 0 | CSNK1D 0 | DDR1 = 0 | DYRK1B 0 | DYRK2 = 0 | EGFR 0 | EGFR_G719S 0 | EGFR_G719S_T790M 0 | EGFR_L718V 0 | EGFR_L858R 0 | EGFR_L861Q 0 | EGFR_T790M 0 | EPHA2 = 0 | ERBB3 = 0 | [1] 0
